Data published in article PMC13249469, “High-throughput ligand diversification to discover chemical inducers of proximity” (Nature Chemical Biology, 2026).
No constants are given. Whether binding was seen depends on the method and setting. In cells and extracts the contact can be indirect. Tags and fused reporters may be left off the sequences shown.

Target: Hpep6–BRD4(S) N140F (BD1 mutant) (UniProt O60885)
Test: split reporter; splitHaloTag in RPE1 cells with FBXO3–EGFP–cpHalo and Hpep6–BRD4s; carfilzomib pretreatment (1 h), then dHTC3 with 100 nM TAMRA-CA for 3 h; flow cytometry, TAMRA/GFP ratio normalised to DMSO

B1: FBXO3–EGFP–cpHalo (protein, UniProt Q9UK99 1-471)
chain: MAAMETETAPLTLESLPTDPLLLILSFLDYRDLINCCYVSRRLSQLSSHDPLWRRHCKKYWLISEEEKTQKNQCWKSLFIDTYSDVGRYIDHYAAIKKAWDDLKKYLEPRCPRMVLSLKEGAREEDLDAVEAQIGCKLPDDYRCSYRIHNGQKLVVPGLLGSMALSNHYRSEDLLDVDTAAGGFQQRQGLKYCLPLTFCIHTGLSQYIAVEAAEGRNKNEVFYQCPDQMARNPAAIDMFIIGATFTDWFTSYVKNVVSGGFPIIRDQIFRYVHDPECVATTGDITVSVSTSFLPELSSVHPPHYFFTYRIRIEMSKDALPEKACQLDSRYWRITNAKGDVEEVQGPGVVGEFPIISPGRVYEYTSCTTFSTTSGYMEGYYTFHFLYFKDKIFNVAIPRFHMACPTFRVSIARLEMGPDEYEEMEEEEEEEEEEDEDDDSADMDESDEDDEEERRRRVFDVPIRRRRCSRLF
Q: With B1 as the binder, how does the binding read?
A: The binding was “no binding (tested: 2 µM dHTC3)”.
